Test [1] addresses Cdc3G (GTPase domain of Cdc3) (S. cerevisiae) (UniProt P32457). Kind of test: crystal structure.
For test [2] the target is unchanged. Put plainly: co-purification.
Test [3] has the same target. Kind of test: SEC-MALS. For orientation: Size exclusion chromatography separates by hydrodynamic size, large species first.
Test [4] shares this target. Kind of test: crystal structure. The source holds these as a separate data set.
The target is the same in test [5]. Kind of test: SEC-MALS. This is another data set of the same source.

Amino acid sequences for entries named in this document (tags omitted). A change or cut given only in a name is not applied to a line headed by its entry.
UniProt P32457: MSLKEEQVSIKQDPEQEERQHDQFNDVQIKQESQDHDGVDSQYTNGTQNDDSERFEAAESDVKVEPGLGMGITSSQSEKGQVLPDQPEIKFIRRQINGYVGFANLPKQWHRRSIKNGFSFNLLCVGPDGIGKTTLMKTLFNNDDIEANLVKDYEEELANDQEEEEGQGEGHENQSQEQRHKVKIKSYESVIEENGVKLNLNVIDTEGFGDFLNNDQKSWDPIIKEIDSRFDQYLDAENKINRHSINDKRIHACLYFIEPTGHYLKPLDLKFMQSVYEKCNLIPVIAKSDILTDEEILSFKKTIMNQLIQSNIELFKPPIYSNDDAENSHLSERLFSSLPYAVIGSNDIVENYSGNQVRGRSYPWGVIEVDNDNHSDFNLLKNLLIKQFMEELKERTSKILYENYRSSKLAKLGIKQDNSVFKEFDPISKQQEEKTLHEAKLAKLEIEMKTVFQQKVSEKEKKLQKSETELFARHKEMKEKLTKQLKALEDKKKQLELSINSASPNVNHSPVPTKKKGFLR

Results are given in words; binding and its absence hold for the method and conditions named. A result given as binding can be weak or reduced; the word gives no strength. For some assays here: In cells and extracts the contact can be indirect.

Regarding “Cdc10G (GTPase domain of Cdc10) (from UniProt P25342) (domain or fragment)”, the binding result in test [1], in test [2] and in test [3] was “binds” throughout.

B1: Cdc10_(Δ1-10) (domain or fragment)
chain: SYVGFDTITNQIEHRLLKKGFQFNIMVVGQSGLGKSTLINTLFASHLIDSATGDDISALPVTKTTEMKISTHTLVEDRVRLNINVIDTPGFGDFIDNSKAWEPIVKYIKEQHSQYLRKELTAQRERFITDTRVHAILYFLQPNGKELSRLDVEALKRLTEIANVIPVIGKSDTLTLDERTEFRELIQNEFEKYNFKIYPYDSEELTDEELELNRSVRSIIPFAVVGSENEIEINGETFRGRKTRWSAINVEDINQCDFVYLREFLIRTHLQDLIETTSYIHYEGFRARQLIALKENANSRSSAHMSSNAIQR
Consider B1, for which the binding entry in test [4] and in test [5] was “binds” throughout.

These data come from publication doi:10.1101/2023.04.22.537027 (bioRxiv, 2023).
